Measurements reported in PubChem BioAssay AID493246 (Drosophila RNAi Screening Center, 2011).
The deposit covers about 21,000 reagents; shown is a random part of those with a known target gene and a result. In the full data, 429 (2%) are marked active. 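Values are raw and not normalised between plates; calls rest on per-plate z-scores that were not deposited.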 The numbers tell different reagents against one gene apart. A plus sign joins genes that one reagent is predicted to hit. Not given: the amount of reagent, the time to read-out.

Assay: 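Genes fly cells need to grow and stay alive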 (primary screen)
Cell system: Drosophila Kc and S2R+ cells
Reagent: long dsRNA against Drosophila genes
Read-out: 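Cell number per well after knock-down, printed as raw plate values; calls were based on per-plate z-scores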
Direction: Kc cell number and S2R+ cell number: higher = more cells remaining
Active means: 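Active when the per-plate z-score of cell number is 3 or more in the direction of fewer cells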

With knock-down of Clbn (Caliban), the screen gave Kc cell number, rep 1 = 1.55e6; Kc cell number, rep 2 = 1.63e6; S2R+ cell number, rep 1 = 9.93e5; S2R+ cell number, rep 2 = 1.13e6; inactive.
After knock-down of rogdi the results were Kc cell number, rep 1 = 1.55e6; Kc cell number, rep 2 = 1.54e6; S2R+ cell number, rep 1 = 1.20e6; S2R+ cell number, rep 2 = 1.16e6; inactive.
Silencing of CG11050 gave: Kc cell number, rep 1 = 1.18e6; Kc cell number, rep 2 = 1.29e6; S2R+ cell number, rep 1 = 4.55e5; S2R+ cell number, rep 2 = 4.25e5; inactive.
Against rgr (regular) #1, the values are Kc cell number, rep 1 = 1.40e6; Kc cell number, rep 2 = 1.54e6; S2R+ cell number, rep 1 = 1.11e6; S2R+ cell number, rep 2 = 1.09e6; inactive.
Depletion of rgr (regular) #2 resulted in: Kc cell number, rep 1 = 1.30e6; Kc cell number, rep 2 = 1.42e6; S2R+ cell number, rep 1 = 1.11e6; S2R+ cell number, rep 2 = 1.18e6; inactive.
Against Rpt6 (Regulatory particle triple-A ATPase 6) the deposit lists Kc cell number, rep 1 = 1.51e6; Kc cell number, rep 2 = 1.60e6; S2R+ cell number, rep 1 = 1.13e6; S2R+ cell number, rep 2 = 1.27e6; inactive.
With knock-down of fd59A (forkhead domain 59A) the results were Kc cell number, rep 1 = 1.32e6; Kc cell number, rep 2 = 1.35e6; S2R+ cell number, rep 1 = 1.08e6; S2R+ cell number, rep 2 = 1.18e6; inactive.
Against CG3919 the deposit lists Kc cell number, rep 1 = 1.85e6; Kc cell number, rep 2 = 1.93e6; S2R+ cell number, rep 1 = 1.19e6; S2R+ cell number, rep 2 = 1.30e6; inactive.
After knock-down of CG8736 the results were Kc cell number, rep 1 = 1.73e6; Kc cell number, rep 2 = 1.79e6; S2R+ cell number, rep 1 = 1.44e6; S2R+ cell number, rep 2 = 1.61e6; inactive.
Depletion of Fatp (retired record) came out at: Kc cell number, rep 1 = 1.35e6; Kc cell number, rep 2 = 1.33e6; S2R+ cell number, rep 1 = 1.04e6; S2R+ cell number, rep 2 = 1.00e6; inactive.
After knock-down of CG6421, the screen gave Kc cell number, rep 1 = 1.60e6; Kc cell number, rep 2 = 1.60e6; S2R+ cell number, rep 1 = 1.24e6; S2R+ cell number, rep 2 = 1.43e6; inactive.
For CG15212 the deposit lists Kc cell number, rep 1 = 1.26e6; Kc cell number, rep 2 = 1.37e6; S2R+ cell number, rep 1 = 1.11e6; S2R+ cell number, rep 2 = 1.17e6; inactive.
After knock-down of CG5112, the screen gave Kc cell number, rep 1 = 5.22e5; S2R+ cell number, rep 1 = 6.90e5; inactive.
For CG16896 the deposit lists Kc cell number, rep 1 = 1.21e6; Kc cell number, rep 2 = 1.39e6; S2R+ cell number, rep 1 = 1.05e6; S2R+ cell number, rep 2 = 9.53e5; inactive.

3 neighbouring records from above:
CG8736 — Kc cell number, rep 1 = 1.73e6; Kc cell number, rep 2 = 1.79e6; S2R+ cell number, rep 1 = 1.44e6; S2R+ cell number, rep 2 = 1.61e6; call = inactive
Fatp (retired record) — Kc cell number, rep 1 = 1.35e6; Kc cell number, rep 2 = 1.33e6; S2R+ cell number, rep 1 = 1.04e6; S2R+ cell number, rep 2 = 1.00e6; call = inactive
CG6421 — Kc cell number, rep 1 = 1.60e6; Kc cell number, rep 2 = 1.60e6; S2R+ cell number, rep 1 = 1.24e6; S2R+ cell number, rep 2 = 1.43e6; call = inactive

Further records:
CG18539 gave Kc cell number, rep 1 = 1.52e6; Kc cell number, rep 2 = 1.59e6; S2R+ cell number, rep 1 = 1.11e6; S2R+ cell number, rep 2 = 1.23e6; inactive.
scramb2 (scramblase 2) gave Kc cell number, rep 1 = 1.43e6; Kc cell number, rep 2 = 1.33e6; S2R+ cell number, rep 1 = 1.14e6; S2R+ cell number, rep 2 = 1.43e6; inactive.
Silencing of CG32052 came out at: Kc cell number, rep 1 = 1.27e6; Kc cell number, rep 2 = 1.42e6; S2R+ cell number, rep 1 = 1.28e6; S2R+ cell number, rep 2 = 1.26e6; inactive.
Knock-down of Bem46 gave: Kc cell number, rep 1 = 1.64e6; Kc cell number, rep 2 = 1.65e6; S2R+ cell number, rep 1 = 1.16e6; S2R+ cell number, rep 2 = 1.25e6; inactive.
After knock-down of CG3176 + CR18166 + CG32817 #1, the record shows Kc cell number, rep 1 = 1.14e6; Kc cell number, rep 2 = 1.28e6; S2R+ cell number, rep 1 = 1.05e6; S2R+ cell number, rep 2 = 1.11e6; inactive.
Against CG3176 + CR18166 + CG32817 #2, the values are Kc cell number, rep 1 = 1.12e6; Kc cell number, rep 2 = 1.23e6; S2R+ cell number, rep 1 = 1.08e6; S2R+ cell number, rep 2 = 1.08e6; inactive.
CG3176 + CR18166 + CG32817 #3 scored Kc cell number, rep 1 = 5.42e5; S2R+ cell number, rep 1 = 8.60e5; inactive.
Silencing of CG44838 #1 resulted in: Kc cell number, rep 1 = 6.73e5; Kc cell number, rep 2 = 9.07e5; S2R+ cell number, rep 1 = 5.28e5; S2R+ cell number, rep 2 = 6.22e5; active.
Silencing of CG44838 #2 resulted in: Kc cell number, rep 1 = 1.36e6; Kc cell number, rep 2 = 1.41e6; S2R+ cell number, rep 1 = 1.28e6; S2R+ cell number, rep 2 = 1.23e6; inactive.
With knock-down of MED30 (Mediator complex subunit 30), the screen gave Kc cell number, rep 1 = 1.21e6; Kc cell number, rep 2 = 1.38e6; S2R+ cell number, rep 1 = 8.90e5; S2R+ cell number, rep 2 = 9.98e5; inactive.
With knock-down of CngB (Cyclic nucleotide-gated ion channel subunit B), the screen gave Kc cell number, rep 1 = 1.12e6; Kc cell number, rep 2 = 1.19e6; S2R+ cell number, rep 1 = 8.35e5; S2R+ cell number, rep 2 = 7.03e5; inactive.
Silencing of Hsp67Ba (Heat shock gene 67Ba) gave: Kc cell number, rep 1 = 1.60e6; Kc cell number, rep 2 = 1.60e6; S2R+ cell number, rep 1 = 1.17e6; S2R+ cell number, rep 2 = 1.32e6; inactive.
After knock-down of CR42745 (retired record), the record shows Kc cell number, rep 1 = 1.36e6; Kc cell number, rep 2 = 1.65e6; S2R+ cell number, rep 1 = 1.16e6; S2R+ cell number, rep 2 = 9.51e5; inactive.
